# Data as given in PubChem BioAssay AID743255 (National Center for Advancing Translational Sciences (NCATS), 2014).
# Chains of the proteins cited; added tags and fusions are not shown. Lines headed by an entry give the natural chain unless they say otherwise; changes in a name come on top.
# UniProt O94782: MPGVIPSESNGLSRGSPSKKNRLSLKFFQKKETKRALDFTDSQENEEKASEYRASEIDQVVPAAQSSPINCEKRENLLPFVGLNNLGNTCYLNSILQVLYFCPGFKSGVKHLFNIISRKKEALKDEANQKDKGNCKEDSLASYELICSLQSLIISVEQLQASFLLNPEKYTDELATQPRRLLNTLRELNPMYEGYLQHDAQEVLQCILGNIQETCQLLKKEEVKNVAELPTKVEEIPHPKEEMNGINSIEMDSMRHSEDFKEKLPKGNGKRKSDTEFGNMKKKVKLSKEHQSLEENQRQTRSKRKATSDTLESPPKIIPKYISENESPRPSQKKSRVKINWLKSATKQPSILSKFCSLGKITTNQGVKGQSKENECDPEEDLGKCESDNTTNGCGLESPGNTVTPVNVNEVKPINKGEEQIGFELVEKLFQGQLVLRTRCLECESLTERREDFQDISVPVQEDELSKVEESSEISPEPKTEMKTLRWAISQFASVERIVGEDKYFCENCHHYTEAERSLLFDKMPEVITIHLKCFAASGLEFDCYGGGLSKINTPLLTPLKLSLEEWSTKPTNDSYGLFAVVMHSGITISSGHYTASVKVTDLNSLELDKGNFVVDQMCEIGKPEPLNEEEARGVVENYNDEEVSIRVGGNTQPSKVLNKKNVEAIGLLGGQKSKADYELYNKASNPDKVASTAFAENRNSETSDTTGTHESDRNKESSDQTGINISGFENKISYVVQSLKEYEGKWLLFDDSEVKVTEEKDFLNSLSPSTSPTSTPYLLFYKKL
# The whole screen tested about 390,000 compounds, of which about 910 (0.23%) were called active. The inconclusive results got no clear call from the source; some entries with a clear call stand among them for comparison. The call rests on the fitted dose curve; in most records, active means well fitted inhibition curve with a large enough effect; inconclusive means small, poorly fitted or top-dose-only effect; inactive means no such curve, though single readings can be large or run the other way. A potency beside an inconclusive call is a rough fit, not a confirmed value.
# Target: Ubiquitin carboxyl-terminal hydrolase 1 (Homo sapiens) (UniProt O94782)
# Test: Inhibitors of USP1/UAF1: Primary Screen; further: nearly all actives have a fitted effect of over 60% in size
# Settings: recombinant USP1/UAF1, Ub-Rhodamine cleavage fluorescence; activity change, negative = inhibition: at 57.1 µM (top of the series)
# Method in brief: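 USP1/UAF1 complex (1 nM) preincubated 15 min at room temperature with compound, then Ub-Rho substrate (150 nM final) added. Kinetic fluorescence at 480/540 nm over 6 reads at 60 s intervals; 50 mM HEPES pH 7.8, 0.5 mM EDTA, 0.1 mg/ml BSA, 1 mM TCEP, 0.01% Tween-20.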
# On the % scale 0 is the no-effect control and ±100 the full control effect; potency means the concentration at half of the fitted maximal effect.
SMILES,Potency,"activity change, negative = inhibition"
CCOC(=O)c1cn2nc(Oc3ccc(C)cc3)ccc2n1,"inconclusive: 44.7 µM [inhibitor, partial curve, poor fit]",–
CCc1nnc(N/N=C/c2ccc(N3CCC(C)CC3)c([N+](=O)[O-])c2)n1N,"inconclusive: 35.5 µM [inhibitor, partial curve]",–
COc1ccc(CNC(=O)c2ccc(-c3nc(CSc4ccccc4)c(C)o3)cc2)c(OC)c1,"inconclusive: 6.31 µM [inhibitor, partial curve]",–
Cc1cccn2c(=O)c(/C=C(\C#N)S(=O)(=O)c3ccc(Cl)cc3)c(N3CCC(C(N)=O)CC3)nc12,"inconclusive: 39.8 µM [inhibitor, partial curve, poor fit]",–
O=C1c2ccccc2-c2n[nH]c(=O)c3ccc(N4CCCCC4)c1c23,inactive,–
O=c1[nH]c(/C=C/c2cccc([N+](=O)[O-])c2)c([N+](=O)[O-])c(=O)[nH]1,"inconclusive: 25.1 µM [inhibitor, partial curve]",–
COc1ccc(Nc2cc(C)c3cc(NC(=O)c4cc(OC)cc(OC)c4)ccc3n2)cc1,inactive,–
CCN(CC(=O)Nc1ccccc1C(F)(F)F)C(=O)CCc1nc2sc3c(c2c(=O)[nH]1)CCCC3,inactive,–
COC(=O)c1ccccc1NC(=O)Cn1c(=O)n(CCCC(=O)NCCc2ccc(OC)c(OC)c2)c(=O)c2ccccc21,inactive,–
O=C(c1ccccc1)c1ccc2nc(Nc3cc(Cl)ccc3O)c3nncn3c2c1,"inconclusive: 0.224 µM [inhibitor, full curve]",–
CCOC(=O)N1CCN(C(=O)c2ccccc2N(Cc2ccccc2)S(=O)(=O)c2ccccc2)CC1,"inconclusive: 25.1 µM [inhibitor, partial curve, poor fit]",–
CN1CCN(C(=O)CSc2nc3c(c(=O)n(C)c(=O)n3C)n2C)CC1,"inconclusive: 44.7 µM [inhibitor, single point]",–
O=C(N/N=C/c1ccc(Cl)cc1)c1n[nH]c2c1CCCC2,inactive,–
CCN1CCC(N(Cc2ccc(F)cc2)C(=O)Nc2cc(Cl)ccc2C(=O)OC)CC1,"inconclusive: 4.47 µM [inhibitor, full curve]",–
CCOc1ccc(S(=O)(=O)N2CCC(N3CCN(Cc4ccc(C)cc4)C(=O)C3=O)CC2)cc1,"inconclusive: 7.94 µM [inhibitor, partial curve, poor fit]",–
C[C@H]1COC(=O)[C@H](CC(=O)OC(C)(C)C)C/C=C\C[C@@H](CC(=O)N[C@@H](CO)Cc2ccccc2)C(=O)N1,inactive,–
COc1cc(NC(=O)CSc2nc(C)cs2)cc(OC)c1,"inconclusive: 0.282 µM [inhibitor, full curve]",–
COc1cccc(CNc2nccn(-c3ccc(OC)c(OC)c3)c2=O)c1,"inconclusive: 89.1 µM [inhibitor, partial curve, poor fit]",–
C=CC[C@@H](CC(=O)NCCO)C(=O)N[C@H](COC(=O)[C@@H](CC=C)Cc1ccc(F)cc1)Cc1c[nH]c2ccccc12,"inconclusive: 44.7 µM [inhibitor, partial curve, poor fit]",–
CCOC(=O)CN(Cc1ccc(OC)c(OC)c1)S(=O)(=O)c1ccc(OC)cc1,"inconclusive: 0.282 µM [inhibitor, full curve, poor fit]",–

SMILES,Potency,"activity change, negative = inhibition"
COc1ccc(-n2c(/C=C/c3c(C)[nH]c4ccccc34)nc3ccccc3c2=O)cc1,"inconclusive: 28.2 µM [inhibitor, partial curve]",–
Cc1ncc(CO)c(CNc2ccc(Oc3ccccc3)cc2)c1O,inactive,–
O=C(Nc1cccc(Cl)c1)Nc1csc([N+](=O)[O-])c1,inactive,–
CC1CCCCN1C(=O)c1ccc(COc2ccc([N+](=O)[O-])cc2)o1 (stereo not given),inactive,–
O=C(O)C1=CC[C@@H](c2ccc(Cl)cc2)N(S(=O)(=O)c2ccc(Cl)cc2)C1,"inconclusive: 0.0891 µM [inhibitor, full curve, poor fit]",–
COc1ccc(C2C=C(c3ccccc3)Nc3nc(NC(=O)/C=C/c4ccc(F)cc4)nn32)cc1 (stereo not given),"inconclusive: 17.8 µM [inhibitor, partial curve, poor fit]",–
O=C(NC(=S)N1CCc2ccccc21)c1ccc(Br)o1,"inconclusive: 8.91 µM [inhibitor, single point]",–
CCNC(=S)/N=C(/Nc1ccccc1)Nc1nc(C)cc(C)n1,–,inconclusive: -27.4% [inhibitor]
CO[C@H]1/C=C/O[C@@]2(C)Oc3c(C)c(O)c4c(O)c(c5c(c4c3C2=O)NC2(CCN(CC(C)C)CC2)N=5)=NC(=O)/C(C)=C\C=C\[C@H](C)[C@H](O)[C@@H](C)[C@@H](O)[C@@H](C)[C@H](OC(C)=O)[C@@H]1C,"inconclusive: 31.6 µM [inhibitor, single point]",–
COc1ccc(Br)cc1S(=O)(=O)NCCc1cccs1,"inconclusive: 44.7 µM [inhibitor, partial curve]",–
Cc1cc(C)cc(NC(=S)N(C)C)c1,"inconclusive: 2.24 µM [inhibitor, full curve, poor fit]",–
Cc1ccc(NC(=O)CN(c2ccc3c(c2)OCO3)S(=O)(=O)c2c(C)n[nH]c2C)cc1,"inconclusive: 0.794 µM [inhibitor, full curve]",–
CCOc1ccc(C(=O)OCc2cc(=O)n3cc(C)sc3n2)cc1,inactive,–
CCOC(=O)Cc1cc(=O)n2[nH]cc(-c3cccc(Br)c3)c2n1,"inconclusive: 7.08 µM [inhibitor, single point]",–
NC(=O)c1ccccc1NC(=O)Cn1nc(Cc2cccnc2)c2ccccc2c1=O,inactive,–
COc1cc(N(C)C)ccc1C=c1c2ccccc2n2c1cc(-c1ccccc1)[n+]2C,"inconclusive: 35.5 µM [inhibitor, partial curve]",–
CCOc1ccc(CNC(=O)c2sc3ncnc(N(C)C4CCCCC4)c3c2C)cc1,"inconclusive: 25.1 µM [inhibitor, single point]",–
O=C1CS(=O)(=O)N(Cc2cccc(F)c2)c2ccc(Br)cc21,"inconclusive: 0.251 µM [inhibitor, full curve, poor fit]",–
O=C(Nc1ccc(Cl)c(-c2nc3ccccc3[nH]2)c1)c1ccc2c(c1)OCO2,"inconclusive: 35.5 µM [inhibitor, single point]",–
Cn1c(CN2CCCC2)nc2cc(NC(=O)COc3ccc(Cl)cc3)ccc21,"inconclusive: 0.112 µM [inhibitor, full curve]",–

# 4 records picked at random from those above:
SMILES,Potency,"activity change, negative = inhibition"
CCNC(=S)/N=C(/Nc1ccccc1)Nc1nc(C)cc(C)n1,–,inconclusive: -27.4% [inhibitor]
COc1cc(N(C)C)ccc1C=c1c2ccccc2n2c1cc(-c1ccccc1)[n+]2C,"inconclusive: 35.5 µM [inhibitor, partial curve]",–
O=C(Nc1ccc(Cl)c(-c2nc3ccccc3[nH]2)c1)c1ccc2c(c1)OCO2,"inconclusive: 35.5 µM [inhibitor, single point]",–
CC1CCCCN1C(=O)c1ccc(COc2ccc([N+](=O)[O-])cc2)o1 (stereo not given),inactive,–

# The listing continues.

SMILES,Potency,"activity change, negative = inhibition"
O=C(COC(=O)c1c(F)cccc1Cl)NCC1CCCCC1,"inconclusive: 7.08 µM [inhibitor, full curve, poor fit]",–
CN(C(=O)c1ccc(S(=O)(=O)NC2CCCC2)cc1)C1CCCCC1,"inconclusive: 31.6 µM [inhibitor, single point]",–
CCNc1oc(-c2ccc(COc3ccc(Cl)cc3)o2)nc1C#N,"inconclusive: 0.631 µM [inhibitor, full curve, poor fit]",–
Cc1ccc(-c2cc3nc(C)cc(C)n3n2)cc1,inactive,–
CC(C)c1ccc(CC(NC(=O)c2ccccc2)C(=O)NCC(=O)O)cc1 (stereo not given),"inconclusive: 3.98 µM [inhibitor, single point]",–
Cc1[nH]n(-c2ccccc2)c(=S)c1C=Nc1ccc([N+](=O)[O-])cc1,inactive,–
CCOc1ccc(NC(=O)CN2C(=O)C3CCCN3C2=O)cc1 (stereo not given),inactive,–
C[C@H](O)[C@@H]1C(=O)N2CCc3ccc(-c4cccc(F)c4)cc3[C@@H]2C[C@@H]1N(C)S(=O)(=O)c1ccccc1,"inconclusive: 31.6 µM [inhibitor, partial curve, poor fit]",–
Cc1ccc(Cl)cc1NC(=O)CSc1nc2c(c(=O)[nH]1)CN(Cc1ccccc1)CC2,inactive,–
COc1cc(SC)ccc1C(=O)N(C)CC(=O)Nc1cccc2ccccc12,"inconclusive: 8.91 µM [inhibitor, partial curve, poor fit]",–
COc1ccc(C(=O)Oc2cc(-c3ccc4c(c3)OCO4)cc(=O)c3c(C)oc(C)c23)cc1,"inconclusive: 3.55 µM [inhibitor, single point]",–
Cc1cc(C(=O)CCl)c(C)n1-c1cccc(S(=O)(=O)N2CCOCC2)c1,"inconclusive: 6.31 µM [inhibitor, full curve, poor fit]",–
C=CCNc1nc(-c2ccc(O)c(C(N)=O)c2)cs1,inactive,–
Cc1cc([N+](=O)[O-])cc(/C=N/n2c(C)nc3ccccc3c2=O)c1O,"inconclusive: 22.4 µM [inhibitor, partial curve, poor fit]",–
CCCCNc1c(-c2ccc(-c3ccc(OC)cc3)c(OC)c2)nc2ccccn12,"inconclusive: 3.55 µM [inhibitor, partial curve]",–
COc1cccc(Cn2c(=O)n(-c3ccc(C)c(F)c3)c(=O)c3sc4ccccc4c32)c1,"inconclusive: 0.355 µM [inhibitor, full curve, poor fit]",–
Cc1ccc(S(=O)(=O)N2C[C@@H](C)[C@]3(C2)[C@H](O)[C@H](OC(=O)NC2CCCC2)C[C@H]2C(=O)N(c4ccccc4)C(=O)[C@H]23)cc1,"inconclusive: 0.251 µM [inhibitor, full curve, poor fit]",–
O=C(NCc1ccccc1Cl)C1CCC(CNS(=O)(=O)c2ccc(Cl)cc2)CC1 (stereo not given),"inconclusive: 100 µM [inhibitor, partial curve, poor fit]",–
CN1CCN(c2nc(-c3cccnc3)nc3scc(-c4ccccc4)c23)CC1,inactive,–
COc1ccc(S[C@@H](CCN2CC[C@H](NC(=O)OCc3ccccc3)CCC2=O)c2ccccc2)cc1,"inconclusive: 44.7 µM [inhibitor, partial curve, poor fit]",–
